PubChem BioAssay AID1159578, Peter MacCallum Cancer Centre – 2015
The deposit covers about 18,000 reagents; this is a random part of them. Of all reagents, about 1,030 (5.7%) got an active call. 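Inactive calls also include pools with fewer than 3300 nuclei, whose migration was not assessed.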 Raw values are not corrected between plates. Further read-outs or replicates are left out here. Reagent sequences are not shown.

Screen: 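Genome-wide hunt for genes controlling movement of lymphatic endothelial cells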 (primary screen)
Cells: human lymphatic endothelial cells
Reagent: siRNA pool against human genes, 40 nM
Duration: 48 h after transfection
Measured: 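Cells stained with dye and imaged after a scratch; covered wound area and nuclei counted, duplicates averaged, migration set against mock wells and turned into a robust z-score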
Reading the numbers: migration robust z-score: higher = faster migration into the scratch; nuclei per well: higher = more cells in the well
Call rule: 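Migration changed when robust z exceeds 2 or falls below -2 and mean nuclei number is at least 3300; otherwise not called changed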
Meaning of the calls: active = migration changed; inactive = no migration change, or too few cells

For WASH5P (GeneID 375690), the entry reads migration robust z-score 0.78; migration class with cell-count check migration z between -2 and 2; enough cells; nuclei per well, duplicate mean 7322; inactive.
With knock-down of CLPSL2 (GeneID 389383) the results were migration robust z-score 1.06; migration class with cell-count check migration z between -2 and 2; enough cells; nuclei per well, duplicate mean 4470; inactive.
METTL8 (GeneID 79828) showed migration robust z-score -0.52; migration class with cell-count check migration z between -2 and 2; enough cells; nuclei per well, duplicate mean 3564; inactive.
Against CDC40 (GeneID 51362) the deposit lists migration robust z-score 0.31; migration class with cell-count check migration z between -2 and 2; enough cells; nuclei per well, duplicate mean 5438; inactive.
Knock-down of PLEKHF1 (GeneID 79156) gave: migration robust z-score 0.7; migration class with cell-count check migration z between -2 and 2; enough cells; nuclei per well, duplicate mean 6158; inactive.
Silencing of TRA2A (GeneID 29896) gave: migration robust z-score 1.1; migration class with cell-count check migration z between -2 and 2; enough cells; nuclei per well, duplicate mean 4374; inactive.
CEP170 (GeneID 9859) gave migration robust z-score -1.37; migration class with cell-count check migration z between -2 and 2; enough cells; nuclei per well, duplicate mean 4368; inactive.
With knock-down of PROKR1 (GeneID 10887), the record shows migration robust z-score 0.64; migration class with cell-count check migration z between -2 and 2; enough cells; nuclei per well, duplicate mean 4123; inactive.
Against IL7R (GeneID 3575), the entry reads migration robust z-score 0.83; migration class with cell-count check migration z between -2 and 2; enough cells; nuclei per well, duplicate mean 4799; inactive.
After knock-down of OR4S1 (GeneID 256148), the screen gave migration robust z-score 1.02; migration class with cell-count check migration z between -2 and 2; enough cells; nuclei per well, duplicate mean 7372; inactive.
For LUZP2 (GeneID 338645), the values are migration robust z-score -0.19; migration class with cell-count check migration z between -2 and 2; enough cells; nuclei per well, duplicate mean 6368; inactive.
For FAM3B (GeneID 54097), the entry reads migration robust z-score 1.88; migration class with cell-count check migration z between -2 and 2; enough cells; nuclei per well, duplicate mean 6811; inactive.
For ETV4 (GeneID 2118), the entry reads migration robust z-score -0.36; migration class with cell-count check migration z between -2 and 2; enough cells; nuclei per well, duplicate mean 4426; inactive.
Against ME1 (GeneID 4199) the deposit lists migration robust z-score 0.88; migration class with cell-count check migration z between -2 and 2; enough cells; nuclei per well, duplicate mean 6254; inactive.
Silencing of UVRAG (GeneID 7405) gave: migration robust z-score 0; migration class with cell-count check migration z between -2 and 2; enough cells; nuclei per well, duplicate mean 6129; inactive.
Against RASL11B (GeneID 65997) the deposit lists migration robust z-score 0.11; migration class with cell-count check migration z between -2 and 2; enough cells; nuclei per well, duplicate mean 7245; inactive.
GGT1 (GeneID 2678) scored migration robust z-score -0.05; migration class with cell-count check migration z between -2 and 2; enough cells; nuclei per well, duplicate mean 5094; inactive.
Depletion of OAZ3 (GeneID 51686) gave: migration robust z-score 0.62; migration class with cell-count check migration z between -2 and 2; enough cells; nuclei per well, duplicate mean 5352; inactive.
For SLC25A1 (GeneID 6576) the deposit lists migration robust z-score -0.31; migration class with cell-count check migration z between -2 and 2; enough cells; nuclei per well, duplicate mean 5808; inactive.
Silencing of SLC2A1 (GeneID 6513) came out at: migration robust z-score -0.11; migration class with cell-count check migration z between -2 and 2; enough cells; nuclei per well, duplicate mean 4920; inactive.
Silencing of L3MBTL3 (GeneID 84456) gave: migration robust z-score 0.27; migration class with cell-count check migration z between -2 and 2; enough cells; nuclei per well, duplicate mean 3834; inactive.
FOXN4 (GeneID 121643) scored migration robust z-score 1.34; migration class with cell-count check migration z between -2 and 2; enough cells; nuclei per well, duplicate mean 6178; inactive.
For REV3L (GeneID 5980), the values are migration robust z-score 0.54; migration class with cell-count check migration z between -2 and 2; enough cells; nuclei per well, duplicate mean 5258; inactive.
BUB3 (GeneID 9184) gave migration robust z-score -0.94; migration class with cell-count check migration z between -2 and 2; enough cells; nuclei per well, duplicate mean 6042; inactive.
With knock-down of CRYM (GeneID 1428), the screen gave migration robust z-score -2.67; migration class with cell-count check migration z below -2; enough cells; nuclei per well, duplicate mean 5071; active.
After knock-down of KATNBL1 (GeneID 79768) the results were migration robust z-score -0.74; migration class with cell-count check migration z between -2 and 2; enough cells; nuclei per well, duplicate mean 5778; inactive.
With knock-down of LRBA (GeneID 987) the results were migration robust z-score 0.74; migration class with cell-count check migration z between -2 and 2; enough cells; nuclei per well, duplicate mean 5672; inactive.

2 entries already listed, ordered by “migration robust z-score”, ascending.
CRYM (GeneID 1428) | migration robust z-score = -2.67; migration class with cell-count check = migration z below -2; enough cells; nuclei per well, duplicate mean = 5071; Outcome = active
BUB3 (GeneID 9184) | migration robust z-score = -0.94; migration class with cell-count check = migration z between -2 and 2; enough cells; nuclei per well, duplicate mean = 6042; Outcome = inactive
